# Test results: the supplement of paper PMC12067093, “Discovery and optimisation of a covalent ligand for TRIM25 and its application to targeted protein ubiquitination” (Chemical Science, 2025)
# Protein sequences, listed by entry. Tags and fused reporters are not part of them. Lines headed by an entry give the natural chain unless they say otherwise; changes in a name come on top.
# UniProt Q96KB5: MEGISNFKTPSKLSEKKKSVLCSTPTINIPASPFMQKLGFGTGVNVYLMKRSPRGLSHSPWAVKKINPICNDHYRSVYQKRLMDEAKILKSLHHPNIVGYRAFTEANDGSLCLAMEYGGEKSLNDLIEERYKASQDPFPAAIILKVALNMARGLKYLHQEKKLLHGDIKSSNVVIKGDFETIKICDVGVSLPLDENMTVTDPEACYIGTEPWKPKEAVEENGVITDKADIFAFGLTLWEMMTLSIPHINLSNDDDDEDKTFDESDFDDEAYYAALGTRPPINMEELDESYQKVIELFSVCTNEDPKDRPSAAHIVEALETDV
# UniProt Q9BRP1: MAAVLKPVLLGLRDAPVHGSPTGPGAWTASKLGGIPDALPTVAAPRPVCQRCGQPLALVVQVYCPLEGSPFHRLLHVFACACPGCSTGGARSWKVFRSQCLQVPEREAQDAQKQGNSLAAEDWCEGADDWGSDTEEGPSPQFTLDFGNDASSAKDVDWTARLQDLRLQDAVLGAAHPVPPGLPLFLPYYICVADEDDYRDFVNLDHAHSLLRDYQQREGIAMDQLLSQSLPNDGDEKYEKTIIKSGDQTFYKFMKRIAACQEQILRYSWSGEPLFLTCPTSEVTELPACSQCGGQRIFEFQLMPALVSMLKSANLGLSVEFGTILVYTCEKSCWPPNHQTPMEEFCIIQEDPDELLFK
# UniProt Q15154: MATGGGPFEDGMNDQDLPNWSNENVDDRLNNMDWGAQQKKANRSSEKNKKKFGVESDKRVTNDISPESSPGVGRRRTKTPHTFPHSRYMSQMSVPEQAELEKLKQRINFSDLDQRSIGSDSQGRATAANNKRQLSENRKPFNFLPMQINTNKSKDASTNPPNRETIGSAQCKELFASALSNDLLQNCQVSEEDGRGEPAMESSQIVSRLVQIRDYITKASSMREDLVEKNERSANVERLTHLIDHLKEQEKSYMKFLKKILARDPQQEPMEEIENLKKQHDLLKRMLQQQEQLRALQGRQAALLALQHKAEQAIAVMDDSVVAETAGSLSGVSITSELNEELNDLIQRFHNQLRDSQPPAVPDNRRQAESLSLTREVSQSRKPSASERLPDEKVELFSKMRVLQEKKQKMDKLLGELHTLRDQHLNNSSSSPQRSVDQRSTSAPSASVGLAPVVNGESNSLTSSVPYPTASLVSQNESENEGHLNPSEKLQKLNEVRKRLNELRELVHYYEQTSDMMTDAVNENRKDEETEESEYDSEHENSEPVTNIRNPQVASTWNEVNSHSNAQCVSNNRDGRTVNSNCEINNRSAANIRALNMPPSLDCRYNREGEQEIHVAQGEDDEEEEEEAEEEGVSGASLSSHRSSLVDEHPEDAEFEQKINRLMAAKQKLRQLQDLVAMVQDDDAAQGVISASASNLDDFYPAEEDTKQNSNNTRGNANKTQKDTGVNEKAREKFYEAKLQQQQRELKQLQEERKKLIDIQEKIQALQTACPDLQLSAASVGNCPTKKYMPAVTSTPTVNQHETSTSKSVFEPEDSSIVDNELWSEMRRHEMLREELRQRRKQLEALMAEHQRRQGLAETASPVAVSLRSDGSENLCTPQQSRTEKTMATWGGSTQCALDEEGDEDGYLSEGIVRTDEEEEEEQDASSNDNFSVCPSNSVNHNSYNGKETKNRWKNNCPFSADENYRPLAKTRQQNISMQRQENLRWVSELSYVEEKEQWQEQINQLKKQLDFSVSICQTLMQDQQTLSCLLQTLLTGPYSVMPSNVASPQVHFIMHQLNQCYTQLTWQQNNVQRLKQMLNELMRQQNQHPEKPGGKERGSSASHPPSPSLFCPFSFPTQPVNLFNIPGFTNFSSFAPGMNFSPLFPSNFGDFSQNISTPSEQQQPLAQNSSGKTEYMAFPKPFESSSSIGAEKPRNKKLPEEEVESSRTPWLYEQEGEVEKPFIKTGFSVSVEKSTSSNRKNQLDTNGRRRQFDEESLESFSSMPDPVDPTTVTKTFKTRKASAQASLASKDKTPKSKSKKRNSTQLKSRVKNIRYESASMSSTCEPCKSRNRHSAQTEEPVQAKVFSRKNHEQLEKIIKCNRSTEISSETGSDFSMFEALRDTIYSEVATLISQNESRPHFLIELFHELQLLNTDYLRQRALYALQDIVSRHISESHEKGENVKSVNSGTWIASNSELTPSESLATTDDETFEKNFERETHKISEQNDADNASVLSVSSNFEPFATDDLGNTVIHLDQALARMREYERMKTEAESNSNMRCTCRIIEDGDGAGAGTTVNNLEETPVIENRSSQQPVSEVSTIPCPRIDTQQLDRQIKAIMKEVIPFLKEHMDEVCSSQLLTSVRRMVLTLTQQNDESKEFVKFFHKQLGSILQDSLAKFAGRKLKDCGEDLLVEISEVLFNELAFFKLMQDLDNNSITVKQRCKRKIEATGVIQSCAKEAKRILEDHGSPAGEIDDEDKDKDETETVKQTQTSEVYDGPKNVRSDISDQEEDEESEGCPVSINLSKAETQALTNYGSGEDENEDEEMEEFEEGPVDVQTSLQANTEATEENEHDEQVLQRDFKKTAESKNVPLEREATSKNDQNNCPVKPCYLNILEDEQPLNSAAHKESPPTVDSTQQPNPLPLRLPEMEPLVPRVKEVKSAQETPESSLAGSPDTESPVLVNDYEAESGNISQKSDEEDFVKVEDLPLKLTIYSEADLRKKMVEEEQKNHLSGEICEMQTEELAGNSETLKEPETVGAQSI
# UniProt Q96JY6: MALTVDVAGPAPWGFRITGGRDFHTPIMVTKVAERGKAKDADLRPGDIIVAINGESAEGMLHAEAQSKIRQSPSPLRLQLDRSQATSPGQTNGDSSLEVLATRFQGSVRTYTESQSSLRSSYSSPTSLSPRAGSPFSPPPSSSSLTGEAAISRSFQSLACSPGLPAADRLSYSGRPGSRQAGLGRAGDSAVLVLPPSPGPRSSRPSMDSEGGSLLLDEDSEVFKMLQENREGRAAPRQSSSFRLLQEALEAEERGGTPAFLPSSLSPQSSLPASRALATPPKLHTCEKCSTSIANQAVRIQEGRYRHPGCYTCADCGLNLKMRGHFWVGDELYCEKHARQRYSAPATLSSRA
# UniProt Q9NTI5: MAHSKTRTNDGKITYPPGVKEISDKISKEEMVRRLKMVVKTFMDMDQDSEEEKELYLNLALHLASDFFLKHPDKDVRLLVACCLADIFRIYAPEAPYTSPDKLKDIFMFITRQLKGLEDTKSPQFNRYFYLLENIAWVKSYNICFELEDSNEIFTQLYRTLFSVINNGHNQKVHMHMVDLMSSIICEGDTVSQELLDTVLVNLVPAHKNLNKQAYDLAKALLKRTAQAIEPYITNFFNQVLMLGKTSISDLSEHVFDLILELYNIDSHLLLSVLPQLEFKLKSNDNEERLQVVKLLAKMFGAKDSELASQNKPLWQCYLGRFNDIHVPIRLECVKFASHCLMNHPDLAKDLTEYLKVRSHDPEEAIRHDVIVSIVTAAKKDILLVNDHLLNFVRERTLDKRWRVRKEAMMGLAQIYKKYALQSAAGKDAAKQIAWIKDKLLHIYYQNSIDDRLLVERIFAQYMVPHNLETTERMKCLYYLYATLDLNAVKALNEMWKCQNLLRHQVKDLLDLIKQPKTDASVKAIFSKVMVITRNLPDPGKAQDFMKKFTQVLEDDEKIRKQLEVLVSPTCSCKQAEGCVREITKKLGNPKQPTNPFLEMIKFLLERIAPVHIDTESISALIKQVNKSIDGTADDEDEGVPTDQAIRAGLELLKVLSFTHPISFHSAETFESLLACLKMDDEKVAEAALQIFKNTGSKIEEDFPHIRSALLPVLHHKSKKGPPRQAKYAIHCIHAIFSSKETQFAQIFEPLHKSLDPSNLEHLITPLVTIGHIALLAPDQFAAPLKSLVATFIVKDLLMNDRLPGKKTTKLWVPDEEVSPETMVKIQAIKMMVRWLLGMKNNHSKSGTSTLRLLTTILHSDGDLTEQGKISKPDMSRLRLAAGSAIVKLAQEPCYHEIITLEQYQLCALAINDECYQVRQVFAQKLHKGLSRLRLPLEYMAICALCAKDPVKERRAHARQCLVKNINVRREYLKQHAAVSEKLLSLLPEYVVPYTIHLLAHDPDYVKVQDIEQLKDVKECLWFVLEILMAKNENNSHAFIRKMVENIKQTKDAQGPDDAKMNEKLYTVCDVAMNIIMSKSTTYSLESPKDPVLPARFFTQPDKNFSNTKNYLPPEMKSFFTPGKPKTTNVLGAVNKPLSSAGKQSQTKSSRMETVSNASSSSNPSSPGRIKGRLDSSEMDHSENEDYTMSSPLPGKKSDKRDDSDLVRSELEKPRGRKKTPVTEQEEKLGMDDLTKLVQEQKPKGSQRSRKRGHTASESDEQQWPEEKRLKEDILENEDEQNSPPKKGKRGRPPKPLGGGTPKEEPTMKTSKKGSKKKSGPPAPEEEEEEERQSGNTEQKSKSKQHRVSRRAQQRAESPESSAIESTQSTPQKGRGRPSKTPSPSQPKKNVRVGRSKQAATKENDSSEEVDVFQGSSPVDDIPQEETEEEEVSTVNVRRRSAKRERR
# UniProt Q14690: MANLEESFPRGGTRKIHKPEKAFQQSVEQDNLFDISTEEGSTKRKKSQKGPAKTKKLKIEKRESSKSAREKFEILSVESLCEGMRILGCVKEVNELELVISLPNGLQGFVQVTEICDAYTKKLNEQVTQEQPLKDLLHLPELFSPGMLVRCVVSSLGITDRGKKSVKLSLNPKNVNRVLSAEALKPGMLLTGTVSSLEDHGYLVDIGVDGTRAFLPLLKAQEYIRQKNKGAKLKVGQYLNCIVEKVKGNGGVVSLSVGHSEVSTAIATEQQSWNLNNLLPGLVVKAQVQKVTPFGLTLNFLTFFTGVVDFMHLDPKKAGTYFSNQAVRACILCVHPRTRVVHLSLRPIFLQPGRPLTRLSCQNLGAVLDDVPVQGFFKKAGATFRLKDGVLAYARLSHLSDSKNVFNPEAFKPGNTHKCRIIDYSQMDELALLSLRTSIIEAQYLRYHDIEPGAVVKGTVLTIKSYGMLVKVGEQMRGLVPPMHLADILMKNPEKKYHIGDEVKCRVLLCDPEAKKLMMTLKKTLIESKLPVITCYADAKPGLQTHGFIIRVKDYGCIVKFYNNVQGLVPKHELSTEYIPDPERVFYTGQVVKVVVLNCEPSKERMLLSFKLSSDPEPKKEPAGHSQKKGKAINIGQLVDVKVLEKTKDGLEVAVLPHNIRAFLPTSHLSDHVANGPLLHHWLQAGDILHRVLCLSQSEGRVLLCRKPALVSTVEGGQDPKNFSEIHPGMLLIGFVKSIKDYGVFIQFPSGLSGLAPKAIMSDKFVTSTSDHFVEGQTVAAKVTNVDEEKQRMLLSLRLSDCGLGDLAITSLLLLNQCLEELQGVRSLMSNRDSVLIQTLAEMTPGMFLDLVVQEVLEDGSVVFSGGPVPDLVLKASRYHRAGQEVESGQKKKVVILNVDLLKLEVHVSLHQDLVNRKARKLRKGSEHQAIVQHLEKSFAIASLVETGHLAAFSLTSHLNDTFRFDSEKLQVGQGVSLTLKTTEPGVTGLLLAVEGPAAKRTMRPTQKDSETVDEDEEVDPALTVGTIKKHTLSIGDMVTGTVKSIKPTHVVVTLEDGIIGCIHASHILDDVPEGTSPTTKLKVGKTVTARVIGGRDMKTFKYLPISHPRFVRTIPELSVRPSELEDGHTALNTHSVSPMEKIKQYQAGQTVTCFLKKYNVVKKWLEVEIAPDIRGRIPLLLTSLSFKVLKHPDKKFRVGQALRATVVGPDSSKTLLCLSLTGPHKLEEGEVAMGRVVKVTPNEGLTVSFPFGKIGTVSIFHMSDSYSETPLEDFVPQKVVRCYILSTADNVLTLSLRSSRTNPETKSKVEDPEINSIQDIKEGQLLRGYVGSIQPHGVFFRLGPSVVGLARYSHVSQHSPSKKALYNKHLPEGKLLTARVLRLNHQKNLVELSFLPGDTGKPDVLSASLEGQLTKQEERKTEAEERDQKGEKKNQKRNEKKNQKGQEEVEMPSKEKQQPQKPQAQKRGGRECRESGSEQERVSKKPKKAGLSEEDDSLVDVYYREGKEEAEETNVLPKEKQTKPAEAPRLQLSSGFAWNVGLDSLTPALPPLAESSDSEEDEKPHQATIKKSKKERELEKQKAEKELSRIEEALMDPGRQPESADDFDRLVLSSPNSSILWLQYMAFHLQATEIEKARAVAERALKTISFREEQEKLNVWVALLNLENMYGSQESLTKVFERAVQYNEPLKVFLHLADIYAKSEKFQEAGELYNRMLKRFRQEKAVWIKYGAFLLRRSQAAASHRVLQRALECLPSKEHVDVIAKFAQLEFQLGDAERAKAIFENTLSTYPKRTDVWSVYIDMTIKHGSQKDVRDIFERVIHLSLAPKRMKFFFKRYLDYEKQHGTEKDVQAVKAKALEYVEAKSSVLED
# UniProt Q9BUH6, whole entry, looked up: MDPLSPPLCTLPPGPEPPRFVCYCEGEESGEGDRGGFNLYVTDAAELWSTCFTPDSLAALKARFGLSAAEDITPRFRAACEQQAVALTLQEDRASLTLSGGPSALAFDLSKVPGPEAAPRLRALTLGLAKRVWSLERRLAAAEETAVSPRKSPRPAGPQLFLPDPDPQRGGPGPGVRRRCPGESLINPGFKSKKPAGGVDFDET
# This is one part of the list.
# Compound: CC1Cc2ccccc2N1C(=O)C1CCCN(C1)C(=O)CCl (mixture of isomers) [TRIM25 ligand 11 (diastereomer mixture)]
# Test: probe-labelled cysteine peptide fold change vs DMSO (competition) (log2 fold change); higher = less target engagement (more negative = stronger competition)
# Conditions: THP-1, incubation time: 4 h
# 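Note: competitive chemoproteomic profiling in live THP-1 cells with an iodoacetamide desthiobiotin (IA-DTB) probe, comparing probe-labelled peptide intensities in compound-treated cells against DMSO-treated controls.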
Target,probe-labelled cysteine peptide fold change (10 µM),probe-labelled cysteine peptide fold change (50 µM)
PBK_Q96KB5_70_KINPICNDHYR (UniProt Q96KB5),-0.037,-0.0406
PARP4_Q9UKK3_380_CKIEHVEQNTEEFLR (UniProt Q9UKK3),-0.217,-0.0964
PDCD2L_Q9BRP1_100_SQCLQVPER (UniProt Q9BRP1),0.0827,-0.012
PCM1_Q15154_1779_SDISDQEEDEESEGCPVSINLSK (UniProt Q15154),-0.217,-0.0365
PDLIM2_Q96JY6_310_YRHPGCYTCADCGLNLK (UniProt Q96JY6),-0.081,-0.00377
PDS5A_Q29RF7_1093_SALCNADSPKDPVLPMK (UniProt Q29RF7),-0.0248,-0.151
PDS5B_Q9NTI5_676_VLSFTHPISFHSAETFESLLACLK (UniProt Q9NTI5),-0.00482,-0.23
PCNT_O95613_1119_DQVLSLSHEIEECRSELEVLQQR (UniProt O95613),0.183,-0.176
PDS5B_Q9NTI5_571_QLEVLVSPTCSCK (UniProt Q9NTI5),-0.0218,-0.0172
PDCD11_Q14690_535_LPVITCYADAK (UniProt Q14690),0.247,0.297
PCBP2_Q15366_301_GYWGLDASAQTTSHELTIPNDLIGCIIGR (UniProt Q15366),-0.0833,-0.0197
PAXX_Q9BUH6_24_FVCYCEGEESGEGDR (UniProt Q9BUH6),0.288,0.0211
PDHA1_P08559_41_KCDLHR (UniProt P08559),-0.0144,-0.0807
PCYOX1L_Q8NBM8_250_LVCSGLLK (UniProt Q8NBM8),0.118,0.23
